Data reported in patent publication EP3964206A1, “COMPOUNDS FOR THE TREATMENT OF COVID-19” (priority 2020, dated 2022).
Where a name gives a salt, the structure may show the parent alone.

Test system: SARS-CoV-2
Test: microbe, parasite or virus in culture
Format: cell-based
Settings: Severe acute respiratory syndrome coronavirus 2, 120 h

CCN(CC)CCOc1ccc(C(=C(Cl)c2ccccc2)c2ccccc2)cc1 [Compound 82, 2-[4-(2-Chloro-1,2-diphenylvinyl)phenoxy]-N,N-diethylethanamine citrate]
IC50: 13.6 µM

CN(C)C(=O)C(CCN1CCC(O)(c2ccc(Cl)cc2)CC1)(c1ccccc1)c1ccccc1 [Compound 110, 4-[4-(4-Chlorophenyl)-4-hydroxypiperidin-1-yl]-N,N-dimethyl-2,2-diphenylbutyramide hydrochloride]
IC50: 17.2 µM
